Measurements reported in patent EP2369000A1, “Production of peptides and proteins by accumulation in mitochondria” (3T-Science, S.L., priority 2010, dated 2011).

Tested on: mitochondrial fraction
Assay: Enrichment of target protein in the mitochondrial fraction by differential centrifugation (Western blot, ImageJ)
Assay type: cell-based, Kluyveromyces lactis
[1] = P1, pellet from the 1500rpm centrifugation
[2] = P2, pellet from the 13,000rpm centrifugation (mitochondrial fraction)
[3] = S1, supernatant from the 1500rpm centrifugation
[4] = S2, supernatant from the 13,000rpm centrifugation

| Substance | Ratio (With respect to total) [1] | Ratio (With respect to total) [2] | Ratio (With respect to total) [3] | Ratio (With respect to total) [4] | Ratio (With respect to total) (TOTAL) |
| --- | --- | --- | --- | --- | --- |
| MIS-VII: synthetic mitochondrial targeting sequence (MTS), SEQ ID NO: 2, containing the core RRRA (RLRRRAARSLARSAARR) | 0,65 | 1,47 | 1,16 | 1,08 | 1,00 |
| MIS-XIII: synthetic mitochondrial targeting sequence (MTS), SEQ ID NO: 3, containing the core RRRA (RAARRRAARR) | 0,77 | 1,90 | 1,19 | 1,07 | 1,00 |
| MIS-XIV: synthetic mitochondrial targeting sequence (MTS), SEQ ID NO: 4, containing the core RRRA (RARRRARR) | 0,72 | 1,44 | 1,00 | 1,01 | 1,00 |
